From PubChem BioAssay AID540276 (National Center for Advancing Translational Sciences (NCATS), 2011)
Several values for one entry are separate records, joined by “and”; a condition that tells them apart may be missing. Equal entries are not always repeated. The whole screen tested about 300,000 compounds, of which about 5,400 (1.8%) were called active. The inconclusive results got no clear call from the source; some entries with a clear call stand among them for comparison. The call rests on the fitted dose curve; tested in HEK293 cells. Where the call is inconclusive, the potency comes from a doubtful curve fit. The source holds several records for some structures; these can differ, active in one and inactive in another.

Experiment: qHTS for inhibitors of binding or entry into cells for Marburg Virus
Details: Marburg virus pseudotyped entry inhibition, cell reporter; series mostly up to 37.8 µM
Potency means the concentration at half of the fitted maximal effect.

Compound | Potency
COc1ccc(NC(=S)N(CCCN2CCC(C)CC2)Cc2cccs2)cc1Cl | inconclusive: 35.5 µM [inhibitor, single point]
Cn1nc(C(=O)OCCN2C(=O)c3ccccc3C2=O)c2ccccc2c1=O | inconclusive: 6.31 µM [inhibitor, partial curve, poor fit]
Cc1ccccc1C(=O)Nc1cc(-c2cc(C(C)(C)C)oc2C)nn1C | inconclusive: 17.8 µM [inhibitor, single point]
CCCCn1nc(C(=O)N[C@@H](CCSC)c2nc3ccccc3[nH]2)c2ccccc2c1=O | inconclusive: 35.5 µM [inhibitor, single point]
Nc1cccc(NC(=O)c2ccco2)c1 | inconclusive: 12.6 µM [activator, partial curve, poor fit]
CCOc1ccc(NC(=O)CC2C(=O)N(C)C(=S)N2Cc2ccco2)cc1 (stereo not given) | inconclusive: 8.91 µM [activator, partial curve, poor fit]
CC(C)(C)c1ccc(OCCNC(=S)NC(=O)c2cccnc2)cc1 | inconclusive: 0.1 µM [activator, full curve, poor fit]
NS(=O)(=O)c1ccc(NC(=S)NCc2ccccc2Cl)cc1 | inactive
COc1ccc(N2CN=C3SCC(=O)N3C2)cc1 | inconclusive: 1.26 µM [inhibitor, single point]
c1ccc2c(-c3[nH]ncc3CNCCCn3ncc4ccccc43)cccc2c1 | inconclusive: 7.08 µM [inhibitor, partial curve, poor fit]
COc1ccc(-c2cc(C(F)(F)F)n3nc(-c4ccc(Cl)cc4)cc3n2)cc1OC | inactive
O=C(NCc1ccccc1)c1cccc(NC(=O)C2CCCC2)c1 | inconclusive: 0.0705 µM [activator, full curve, poor fit]
Nc1nc(CN2CCN(c3ccc(F)cc3)CC2)nc(N2CCCc3ccccc32)n1 | inconclusive: 0.206 µM [inhibitor, partial curve, poor fit]
CCC(=O)Nc1nnc(SCC(=O)c2ccc3c(c2)Cc2ccccc2-3)s1 | inconclusive: 29.1 µM [inhibitor, single point]
CC1(c2ccc3c(c2)OCCCO3)NC(=O)N(CC(=O)NCCc2ccccc2)C1=O (stereo not given) | inactive
O=C1CCc2cccc(O)c2N1 | inactive
CN1C(C(=O)Nc2ccccn2)=C(O)c2ccccc2S1(=O)=O | inconclusive: 6.31 µM [inhibitor, single point]
O=C1c2ccccc2-c2onc3c(Br)cc(NC4CCCCC4)c1c23 | inconclusive: 28.2 µM [activator, single point]
Cc1cccc(-c2noc(CN(C(C)C)S(=O)(=O)c3ccc(Br)cc3)n2)c1 | inactive
COc1ccc(C(=O)Nc2cccc(S(C)(=O)=O)c2)cc1OC | inconclusive: 11.2 µM [activator, single point]
CC(C)(C)NC(=O)C12CC3CC(CC(Cl)(C3)C1)C2 | inconclusive: 3.16 µM [activator, single point]
COc1ccc(C2C=C(c3ccc(C)cc3)Nc3ncnn32)cc1 (stereo not given) | inconclusive: 22.4 µM [inhibitor, single point]
Cc1ccc(-c2c[n+](Cc3ccc(Cl)c(Cl)c3)c3n2CCC3)cc1 | inconclusive: 2.51 µM [inhibitor, partial curve, poor fit]

Compound | Potency
O=C(Nc1nc2ccccc2[nH]1)NC1CCCCC1 | inconclusive: 6.31 µM [inhibitor, partial curve, poor fit]
NC(N)=Nc1ccc2[nH]c3c(c2c1)C[C@@]1(O)[C@H]2Cc4ccc(O)c5c4[C@@]1(CCN2CC1CC1)[C@H]3O5 | active: 20 µM and active: 25.9 µM
O=C(CNC(=O)c1ccccc1)OCC(=O)c1cccs1 | inactive
CNCC(O)Cn1c2c(c3ccccc31)CCCC2 (stereo not given) | inconclusive: 20.6 µM [inhibitor, single point]
COc1ccccc1N1CCN(C(=O)c2ccc3c(c2)N(Cc2ccccc2)C(=O)c2ccccc2S3(=O)=O)CC1 | active: 8.91 µM
COc1cccc(C(=O)NCCS(=O)(=O)N2CC(C)CC(C)C2)c1 (stereo not given) | inactive
Cc1ccc(N2CCN(Cc3nnc(-c4ccc5c(c4)OCO5)o3)CC2)c(C)c1 | inactive
CCCC(=O)N(c1ccc(OCC)cc1)S(=O)(=O)c1ccc2c3c(cccc13)C(=O)N2C | inconclusive: 3.16 µM [inhibitor, single point]
O=C(N/N=C/c1c[nH]c2ccccc12)c1cc(-c2ccc3ccccc3c2)n[nH]1 | inconclusive: 35.5 µM [inhibitor, single point]
C=CCn1c(COc2cccc(C)c2)nnc1SCn1nnc2ccccc2c1=O | inactive
O[C@@H]1CN(Cc2cccs2)[C@@H](c2ccccc2)C[C@@H]1n1cc(-c2ccc(F)cc2)nn1 | inconclusive: 31.5 µM [inhibitor, single point]
CC(C)(C)c1nnc(NC(=O)CN2C(=O)C3C4C=CC(C4)C3C2=O)s1 (stereo not given) | inconclusive: 2.31 µM [activator, partial curve]
CC(=O)NC(CC(=O)OCC(=O)N1CCN(S(=O)(=O)c2ccc(Cl)cc2)CC1)c1ccccc1 (stereo not given) | inconclusive: 4.47 µM [inhibitor, partial curve, poor fit]
CN=c1scc(-c2cccs2)n1/N=C/c1ccccc1O | active: 0.282 µM
O=C(CSc1ccccn1)c1ccc2c(c1)OCO2 | inconclusive: 0.206 µM [activator, partial curve, poor fit]
CN(CCC(=O)c1ccccc1)CCC(=O)c1ccccc1 | inconclusive: 11.2 µM [inhibitor, partial curve, poor fit]
COc1cccc(CNC(=O)c2cc(-c3cccs3)nc3ccccc23)c1 | inactive
Cc1ccc(C2(CCNS(=O)(=O)c3ccc(C)cc3)CCOC(C(C)C)C2)cc1 (stereo not given) | active: 6.51 µM
CC(C)(C)c1ccccc1OCCOCCN1CCCCCC1 | inconclusive: 10 µM [inhibitor, partial curve, poor fit]
CCOc1nc(NC2CCCC2)nc(N2CCC(C)CC2)n1 | inconclusive: 0.631 µM [inhibitor, full curve, poor fit]
COc1cc2nc(NCc3ccccc3Cl)n3nc(-c4cccnc4)nc3c2cc1OC | inactive
C=C(C)C1CC=C(C)/C(=N/NC(=O)COc2ccccc2Cl)C1 (stereo not given) | inactive
CCOc1ccc(Nc2c(S(=O)(=O)c3ccc(C)cc3)cnc3ccc(OC)cc23)cc1 | inconclusive: 1 µM [inhibitor, full curve, poor fit]
CC1=NN(c2ccccc2)C(=O)/C1=C/c1ccc[nH]1 | inconclusive: 7.08 µM [activator, full curve, poor fit]

Compound | Potency
CC(=NNC(=O)c1ccncc1)c1ccccc1O | active: 3.16 µM
Cc1ccc(NC(=O)COc2ccccc2C=O)cc1Cl | inconclusive: 1.58 µM [activator, partial curve, poor fit]
COc1cccc(CNc2nc3ccccc3n2C)c1O | inconclusive: 0.631 µM [activator, full curve, poor fit]
CN(C)c1ccc(-c2nc(-c3ccncc3)no2)cc1[N+](=O)[O-] | inactive
O=c1c2ccccc2[nH]c(=S)n1CCCN1CCN(c2ccccc2)CC1 | inconclusive: 1.26 µM [inhibitor, full curve, poor fit]
O=C(Cn1nc(C(F)F)cc1C1CC1)NCCC1=CCCCC1 | inactive
COc1cc(/C=N/N=C(/C(=O)c2ccccc2)c2ccccc2)cc(OC)c1O | inactive
COc1ccccc1NC(=S)N(Cc1ccco1)Cc1cc2cc(C)c(C)cc2[nH]c1=O | inconclusive: 1 µM [inhibitor, full curve]
O=c1c2ccccc2nc(-c2ccccc2)n1-c1cccc(O)c1 | inconclusive: 14.1 µM [inhibitor, single point]
Cc1ccc(N=C2SC(C(=O)Nc3ccc(OC(F)(F)F)cc3)C(N)=C2C(=O)Nc2c(C)cc(C)cc2C)cc1 (stereo not given) | inactive and inconclusive: 25.1 µM [inhibitor, single point]
COC(=O)[C@H]1[C@@H](c2ccccc2)NC(=O)N(Cc2ccccc2)[C@@H]1C | inconclusive: 0.0067 µM [inhibitor, full curve]
COC(=O)CCCC(=O)N1CCC(CO)(CCc2ccccc2)CC1 | inconclusive: 8.91 µM [activator, partial curve]
COc1ccccc1CCNC(=O)c1ccoc1C | inactive
O=C(c1ccccc1)c1ccc(NCCCn2ccnc2)c([N+](=O)[O-])c1 | inconclusive: 35.5 µM [inhibitor, single point]
CCc1[nH]nc2c1C1(CCN(C(=O)OCc3ccccc3)CC1)C(C#N)=C(N)O2 | inactive
COc1ccc(/C=N/n2cnn(Cc3ccccc3Cl)c2=S)cc1 | inconclusive: 17.8 µM [activator, single point]
COc1ccc(C(=O)c2nc3c(n2O)CCCCC3)cc1 | inactive
COc1ccc(NS(=O)(=O)c2ccc(SC)cc2)c(OC)c1 | inconclusive: 29.1 µM [inhibitor, single point]
CCOc1cc([N+](=O)[O-])cc(/C=N/NC(=O)c2c(-c3ccccc3)noc2C)c1O | inactive
Cc1cccc(N(C(=O)c2csnn2)C(C(=O)NC2CCCCC2)c2ccncc2)c1 (stereo not given) | inactive
O=C(/C=C/c1ccccc1Cl)Nc1ccncc1 | inactive
CCC(Oc1ccccc1)C(=O)NC1C(=O)N2C1SC(C)(C)C2C(=O)O (stereo not given) | inactive

Of the compounds above, eleven have a Cl atom.
Compound | Potency
COc1ccc(NC(=S)N(CCCN2CCC(C)CC2)Cc2cccs2)cc1Cl | inconclusive: 35.5 µM [inhibitor, single point]
NS(=O)(=O)c1ccc(NC(=S)NCc2ccccc2Cl)cc1 | inactive
COc1ccc(-c2cc(C(F)(F)F)n3nc(-c4ccc(Cl)cc4)cc3n2)cc1OC | inactive
CC(C)(C)NC(=O)C12CC3CC(CC(Cl)(C3)C1)C2 | inconclusive: 3.16 µM [activator, single point]
Cc1ccc(-c2c[n+](Cc3ccc(Cl)c(Cl)c3)c3n2CCC3)cc1 | inconclusive: 2.51 µM [inhibitor, partial curve, poor fit]
CC(=O)NC(CC(=O)OCC(=O)N1CCN(S(=O)(=O)c2ccc(Cl)cc2)CC1)c1ccccc1 (stereo not given) | inconclusive: 4.47 µM [inhibitor, partial curve, poor fit]
COc1cc2nc(NCc3ccccc3Cl)n3nc(-c4cccnc4)nc3c2cc1OC | inactive
C=C(C)C1CC=C(C)/C(=N/NC(=O)COc2ccccc2Cl)C1 (stereo not given) | inactive
Cc1ccc(NC(=O)COc2ccccc2C=O)cc1Cl | inconclusive: 1.58 µM [activator, partial curve, poor fit]
COc1ccc(/C=N/n2cnn(Cc3ccccc3Cl)c2=S)cc1 | inconclusive: 17.8 µM [activator, single point]
O=C(/C=C/c1ccccc1Cl)Nc1ccncc1 | inactive

2 of the compounds above, as labelled records.
COc1ccccc1CCNC(=O)c1ccoc1C
  Potency: inactive
O=C(c1ccccc1)c1ccc(NCCCn2ccnc2)c([N+](=O)[O-])c1
  Potency: inconclusive: 35.5 µM [inhibitor, single point]
